The data set is described as follows: self-splicing fitness, log relative to wild type (ln ratio); higher = more splicing; Tetrahymena group I intron in knt gene, E. coli kanamycin selection, DiMSum; sequences stand for … in CUCUCU…GGAGGGAAAAGUUAUCAGGCAUGCACCUGGUAGCUAGUCUUUAAACCAAUAGAUUGCAUCGGUUUAAAAGGCAAGACCGUCAAAUUGCGGGAAAGGGGUCAACAGCCGUUCAGUACCAAGUCUCAGGGGAAACUUUGAGAUGGCCUUGCAAAGGGUAUGGUAAUAAGCUGACGGACAUGGUCCUAACCACGCAGCCAAGUCCUAAGUCAACAGAUCUUCUGUUGAUAUGGAUGCAGUUCACAGACUAAAUGUCGGUCGGGGAAGAUGUAUUCUUCUCAUAAGAUAUAGUCGGACCUCUCCUUAAUGGGAGCUAGCGGAUGAAGUGAUGCAACACUGGAGCCGCUGGGAACUAAUUUGUAUGCGAAAGUAUAUUGAUUAGUUUUGGAGUACUCGUGGUCG
The procedure, abridged:
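Pooled colonies went to amplicon sequencing on an Illumina HiSeq 2500 after six replicate transformations. The plates were LB agar with 100 μg/mL carbenicillin, 50 μM IPTG and 0.2% rhamnose, with or without 25 μg/mL kanamycin, incubated overnight at 37°C or 30°C. The E. coli BL21(DE3) library had all eight P1ex-region intron nucleotides randomised, the intron placed in the knt kanamycin-resistance gene on pET-22b(+). DiMSum fitness is the error-weighted combination of replicate fold changes, kanamycin against none, normalised to wild type.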

± gives the uncertainty stated by the source. Many of these values have a large error.

Regarding GAGGAGCAAUAUUACGACUG, the “self-splicing fitness (ln)” value (37 °C) is -1.68 ± 0.56.
Turning to AGUGAGCAAUAUUACGGCCC, the “self-splicing fitness (ln)” value (37 °C) is -0.085 ± 0.55.
For the sequence CGGGAGCAAUAUUACGAAAC, the “self-splicing fitness (ln)” value (37 °C) was -1.79 ± 0.82.
UUUUAGCAAUAUUACGAGUU: under “30 °C”, the “self-splicing fitness (ln)” value was -3.04 ± 0.53.
Turning to ACGCAGCAAUAUUACGAGUA, the “self-splicing fitness (ln)” value (30 °C) is -3.72 ± 0.33 and the “self-splicing fitness (ln)” value (37 °C) was -3.07 ± 0.27.
Take CUUAAGCAAUAUUACGUAUC: the “self-splicing fitness (ln)” value (30 °C) is -3.91 ± 0.52.
For CUUGAGCAAUAUUACGCGAA, for the setting “37 °C”, the “self-splicing fitness (ln)” value was -3.15 ± 0.6.
On to CUUAAGCAAUAUUACGGCCU, for which the “self-splicing fitness (ln)” value by setting is: (30 °C) -2.74 ± 0.25; (37 °C) -3.1 ± 0.44.
Regarding CACGAGCAAUAUUACGCCCC, the “self-splicing fitness (ln)” value runs as follows: (30 °C) -4.32 ± 0.72; (37 °C) -1.8 ± 0.81.
With GCUGAGCAAUAUUACGCCCA, the “self-splicing fitness (ln)” value was -2.02 ± 1.2 (30 °C) and -1.74 ± 0.6 (37 °C).
For CGACAGCAAUAUUACGCUAC, under “30 °C”, the “self-splicing fitness (ln)” value was -3.46 ± 0.73.
As to ACAAAGCAAUAUUACGGGAA, the “self-splicing fitness (ln)” value is, setting by setting: (30 °C) -2.44 ± 0.18; (37 °C) -2.48 ± 0.17.
On to AUGAAGCAAUAUUACGGAAG, for which the “self-splicing fitness (ln)” value is -1.17 ± 0.1 (30 °C) and -0.408 ± 0.16 (37 °C).
For AUCUAGCAAUAUUACGUAAC, the “self-splicing fitness (ln)” value (30 °C) is -4.54 ± 0.73 and the “self-splicing fitness (ln)” value (37 °C) is -1.13 ± 0.5.
On to UAUCAGCAAUAUUACGUUCA, for which the “self-splicing fitness (ln)” value runs as follows: (30 °C) -0.267 ± 0.11; (37 °C) 0.345 ± 0.15.
As for AUUGAGCAAUAUUACGUCCC, the “self-splicing fitness (ln)” value (30 °C) is -2.09 ± 1.4 and the “self-splicing fitness (ln)” value (37 °C) was -1.13 ± 1.2.
Take UGUGAGCAAUAUUACGAGUC: the “self-splicing fitness (ln)” value (37 °C) is -3.54 ± 0.6.
Still for that read-out and setting: next, GGGGAGCAAUAUUACGUCGA: -3.13 ± 0.74.
For CAGUAGCAAUAUUACGGCCU, the “self-splicing fitness (ln)” value (30 °C) was -3.02 ± 0.2 and the “self-splicing fitness (ln)” value (37 °C) is -1.67 ± 0.17.
On to UUUAAGCAAUAUUACGGACC, for which the “self-splicing fitness (ln)” value (37 °C) is -0.778 ± 1.4.
Take GGUCAGCAAUAUUACGUUUC: the “self-splicing fitness (ln)” value by setting is: (30 °C) 0.000828 ± 0.13; (37 °C) -0.437 ± 0.14.
With UAAUAGCAAUAUUACGAAGU, under “30 °C”, the “self-splicing fitness (ln)” value was -2.7 ± 0.76.
Take GUGGAGCAAUAUUACGGAAG: the “self-splicing fitness (ln)” value reads like this: (30 °C) -4.51 ± 0.59; (37 °C) -4.63 ± 0.51.
On to GGGGAGCAAUAUUACGGUCA, for which the “self-splicing fitness (ln)” value (30 °C) is -2.83 ± 0.67.
With AAGGAGCAAUAUUACGAAAU, the “self-splicing fitness (ln)” value (30 °C) was -2.26 ± 0.14 and the “self-splicing fitness (ln)” value (37 °C) is -3 ± 0.29.
Take AGAGAGCAAUAUUACGUCAA: the “self-splicing fitness (ln)” value (30 °C) was -2.29 ± 0.5.
With UGCCAGCAAUAUUACGGUAC, the “self-splicing fitness (ln)” value (30 °C) is -4.51 ± 0.59.
Regarding GGAGAGCAAUAUUACGUCCC, the “self-splicing fitness (ln)” value (30 °C) is -3.5 ± 1.
In the case of AUAAAGCAAUAUUACGAAUA, the “self-splicing fitness (ln)” value was -0.578 ± 0.14 (30 °C) and -0.302 ± 0.26 (37 °C).
As to AGAGAGCAAUAUUACGUCAG, for the setting “37 °C”, the “self-splicing fitness (ln)” value was -2.48 ± 0.5.
Still for that read-out and setting: next, UAUUAGCAAUAUUACGGACC: -1.18 ± 0.57.
For CCGGAGCAAUAUUACGCAAG, the “self-splicing fitness (ln)” value is -4.81 ± 0.72 (30 °C) and -3.39 ± 1 (37 °C).
Consider UUUGAGCAAUAUUACGGACA, for which the “self-splicing fitness (ln)” value (30 °C) is -3.12 ± 0.76.
As to UACGAGCAAUAUUACGUCCC, the “self-splicing fitness (ln)” value (30 °C) is -2.58 ± 0.82.
Same read-out and setting: next, CACGAGCAAUAUUACGCCUA: -2.71 ± 1.1.
For the sequence UGCGAGCAAUAUUACGUCUC, the “self-splicing fitness (ln)” value (37 °C) was -2.26 ± 0.57.
Regarding CGCGAGCAAUAUUACGAUUA, the “self-splicing fitness (ln)” value was -3.1 ± 0.3 (30 °C) and -1.99 ± 0.35 (37 °C).
For GGGGAGCAAUAUUACGGCCC, the “self-splicing fitness (ln)” value runs as follows: (30 °C) -1.97 ± 0.51; (37 °C) -2.48 ± 1.1.
Consider GAUUAGCAAUAUUACGAUGA, for which the “self-splicing fitness (ln)” value reads like this: (30 °C) -1.8 ± 0.13; (37 °C) 0.00201 ± 0.11.
In the case of AGCGAGCAAUAUUACGCCAG, the “self-splicing fitness (ln)” value is -2.62 ± 0.62 (30 °C) and -3.25 ± 0.53 (37 °C).
For AAAAAGCAAUAUUACGUUGU, the “self-splicing fitness (ln)” value reads like this: (30 °C) -3.71 ± 0.15; (37 °C) -2.01 ± 0.14.
AAUGAGCAAUAUUACGCCGU: where the note is “30 °C”, the “self-splicing fitness (ln)” value is -3.4 ± 0.52.
For the sequence UCCGAGCAAUAUUACGCGAG, the “self-splicing fitness (ln)” value (30 °C) is -4.06 ± 0.61.
The same measure, in the same setting: next, UUAUAGCAAUAUUACGAGAC: -3.7 ± 1.1.
Regarding CUUGAGCAAUAUUACGUUCA, the “self-splicing fitness (ln)” value is, setting by setting: (30 °C) -2.84 ± 0.75; (37 °C) -2.36 ± 0.63.
In the case of GGCGAGCAAUAUUACGGCCU, for the setting “37 °C”, the “self-splicing fitness (ln)” value was -1.65 ± 0.55.

(Values after the supplement of paper PMC7877785.)
